Data published in patent US11318141B2, “Methods and compositions related to STK1-targeted small molecules as antibiotic resistance breakers” (Ohio State Innovation Foundation, priority 2017, dated 2022).
At least one compound was matched to its structure with a doubt left.

Test system: S. aureus MW2-WT
Type: cell-based, Staphylococcus aureus
Conditions: E-test, 50 μM Inh2-B1

SMILES | MIC / susceptibility pattern for MW2 in the presence vs absence of Inh2-B1
CCC[C@@H]1C[C@@H](C(=O)N[C@@H]([C@H]2O[C@H](SC)[C@H](O)[C@@H](O)[C@H]2O)[C@H](C)Cl)N(C)C1 [Clindamycin] | remained unaltered
CC1COc2c(N3CCN(C)CC3)c(F)cc3c(=O)c(C(=O)O)cn1c23 (centres unmarked) [Ofloxacin] | remained unaltered
